# In article PMC11061317:
# Protein sequences, listed by entry. Tags and fused reporters are not part of them.
# UniProt O75592: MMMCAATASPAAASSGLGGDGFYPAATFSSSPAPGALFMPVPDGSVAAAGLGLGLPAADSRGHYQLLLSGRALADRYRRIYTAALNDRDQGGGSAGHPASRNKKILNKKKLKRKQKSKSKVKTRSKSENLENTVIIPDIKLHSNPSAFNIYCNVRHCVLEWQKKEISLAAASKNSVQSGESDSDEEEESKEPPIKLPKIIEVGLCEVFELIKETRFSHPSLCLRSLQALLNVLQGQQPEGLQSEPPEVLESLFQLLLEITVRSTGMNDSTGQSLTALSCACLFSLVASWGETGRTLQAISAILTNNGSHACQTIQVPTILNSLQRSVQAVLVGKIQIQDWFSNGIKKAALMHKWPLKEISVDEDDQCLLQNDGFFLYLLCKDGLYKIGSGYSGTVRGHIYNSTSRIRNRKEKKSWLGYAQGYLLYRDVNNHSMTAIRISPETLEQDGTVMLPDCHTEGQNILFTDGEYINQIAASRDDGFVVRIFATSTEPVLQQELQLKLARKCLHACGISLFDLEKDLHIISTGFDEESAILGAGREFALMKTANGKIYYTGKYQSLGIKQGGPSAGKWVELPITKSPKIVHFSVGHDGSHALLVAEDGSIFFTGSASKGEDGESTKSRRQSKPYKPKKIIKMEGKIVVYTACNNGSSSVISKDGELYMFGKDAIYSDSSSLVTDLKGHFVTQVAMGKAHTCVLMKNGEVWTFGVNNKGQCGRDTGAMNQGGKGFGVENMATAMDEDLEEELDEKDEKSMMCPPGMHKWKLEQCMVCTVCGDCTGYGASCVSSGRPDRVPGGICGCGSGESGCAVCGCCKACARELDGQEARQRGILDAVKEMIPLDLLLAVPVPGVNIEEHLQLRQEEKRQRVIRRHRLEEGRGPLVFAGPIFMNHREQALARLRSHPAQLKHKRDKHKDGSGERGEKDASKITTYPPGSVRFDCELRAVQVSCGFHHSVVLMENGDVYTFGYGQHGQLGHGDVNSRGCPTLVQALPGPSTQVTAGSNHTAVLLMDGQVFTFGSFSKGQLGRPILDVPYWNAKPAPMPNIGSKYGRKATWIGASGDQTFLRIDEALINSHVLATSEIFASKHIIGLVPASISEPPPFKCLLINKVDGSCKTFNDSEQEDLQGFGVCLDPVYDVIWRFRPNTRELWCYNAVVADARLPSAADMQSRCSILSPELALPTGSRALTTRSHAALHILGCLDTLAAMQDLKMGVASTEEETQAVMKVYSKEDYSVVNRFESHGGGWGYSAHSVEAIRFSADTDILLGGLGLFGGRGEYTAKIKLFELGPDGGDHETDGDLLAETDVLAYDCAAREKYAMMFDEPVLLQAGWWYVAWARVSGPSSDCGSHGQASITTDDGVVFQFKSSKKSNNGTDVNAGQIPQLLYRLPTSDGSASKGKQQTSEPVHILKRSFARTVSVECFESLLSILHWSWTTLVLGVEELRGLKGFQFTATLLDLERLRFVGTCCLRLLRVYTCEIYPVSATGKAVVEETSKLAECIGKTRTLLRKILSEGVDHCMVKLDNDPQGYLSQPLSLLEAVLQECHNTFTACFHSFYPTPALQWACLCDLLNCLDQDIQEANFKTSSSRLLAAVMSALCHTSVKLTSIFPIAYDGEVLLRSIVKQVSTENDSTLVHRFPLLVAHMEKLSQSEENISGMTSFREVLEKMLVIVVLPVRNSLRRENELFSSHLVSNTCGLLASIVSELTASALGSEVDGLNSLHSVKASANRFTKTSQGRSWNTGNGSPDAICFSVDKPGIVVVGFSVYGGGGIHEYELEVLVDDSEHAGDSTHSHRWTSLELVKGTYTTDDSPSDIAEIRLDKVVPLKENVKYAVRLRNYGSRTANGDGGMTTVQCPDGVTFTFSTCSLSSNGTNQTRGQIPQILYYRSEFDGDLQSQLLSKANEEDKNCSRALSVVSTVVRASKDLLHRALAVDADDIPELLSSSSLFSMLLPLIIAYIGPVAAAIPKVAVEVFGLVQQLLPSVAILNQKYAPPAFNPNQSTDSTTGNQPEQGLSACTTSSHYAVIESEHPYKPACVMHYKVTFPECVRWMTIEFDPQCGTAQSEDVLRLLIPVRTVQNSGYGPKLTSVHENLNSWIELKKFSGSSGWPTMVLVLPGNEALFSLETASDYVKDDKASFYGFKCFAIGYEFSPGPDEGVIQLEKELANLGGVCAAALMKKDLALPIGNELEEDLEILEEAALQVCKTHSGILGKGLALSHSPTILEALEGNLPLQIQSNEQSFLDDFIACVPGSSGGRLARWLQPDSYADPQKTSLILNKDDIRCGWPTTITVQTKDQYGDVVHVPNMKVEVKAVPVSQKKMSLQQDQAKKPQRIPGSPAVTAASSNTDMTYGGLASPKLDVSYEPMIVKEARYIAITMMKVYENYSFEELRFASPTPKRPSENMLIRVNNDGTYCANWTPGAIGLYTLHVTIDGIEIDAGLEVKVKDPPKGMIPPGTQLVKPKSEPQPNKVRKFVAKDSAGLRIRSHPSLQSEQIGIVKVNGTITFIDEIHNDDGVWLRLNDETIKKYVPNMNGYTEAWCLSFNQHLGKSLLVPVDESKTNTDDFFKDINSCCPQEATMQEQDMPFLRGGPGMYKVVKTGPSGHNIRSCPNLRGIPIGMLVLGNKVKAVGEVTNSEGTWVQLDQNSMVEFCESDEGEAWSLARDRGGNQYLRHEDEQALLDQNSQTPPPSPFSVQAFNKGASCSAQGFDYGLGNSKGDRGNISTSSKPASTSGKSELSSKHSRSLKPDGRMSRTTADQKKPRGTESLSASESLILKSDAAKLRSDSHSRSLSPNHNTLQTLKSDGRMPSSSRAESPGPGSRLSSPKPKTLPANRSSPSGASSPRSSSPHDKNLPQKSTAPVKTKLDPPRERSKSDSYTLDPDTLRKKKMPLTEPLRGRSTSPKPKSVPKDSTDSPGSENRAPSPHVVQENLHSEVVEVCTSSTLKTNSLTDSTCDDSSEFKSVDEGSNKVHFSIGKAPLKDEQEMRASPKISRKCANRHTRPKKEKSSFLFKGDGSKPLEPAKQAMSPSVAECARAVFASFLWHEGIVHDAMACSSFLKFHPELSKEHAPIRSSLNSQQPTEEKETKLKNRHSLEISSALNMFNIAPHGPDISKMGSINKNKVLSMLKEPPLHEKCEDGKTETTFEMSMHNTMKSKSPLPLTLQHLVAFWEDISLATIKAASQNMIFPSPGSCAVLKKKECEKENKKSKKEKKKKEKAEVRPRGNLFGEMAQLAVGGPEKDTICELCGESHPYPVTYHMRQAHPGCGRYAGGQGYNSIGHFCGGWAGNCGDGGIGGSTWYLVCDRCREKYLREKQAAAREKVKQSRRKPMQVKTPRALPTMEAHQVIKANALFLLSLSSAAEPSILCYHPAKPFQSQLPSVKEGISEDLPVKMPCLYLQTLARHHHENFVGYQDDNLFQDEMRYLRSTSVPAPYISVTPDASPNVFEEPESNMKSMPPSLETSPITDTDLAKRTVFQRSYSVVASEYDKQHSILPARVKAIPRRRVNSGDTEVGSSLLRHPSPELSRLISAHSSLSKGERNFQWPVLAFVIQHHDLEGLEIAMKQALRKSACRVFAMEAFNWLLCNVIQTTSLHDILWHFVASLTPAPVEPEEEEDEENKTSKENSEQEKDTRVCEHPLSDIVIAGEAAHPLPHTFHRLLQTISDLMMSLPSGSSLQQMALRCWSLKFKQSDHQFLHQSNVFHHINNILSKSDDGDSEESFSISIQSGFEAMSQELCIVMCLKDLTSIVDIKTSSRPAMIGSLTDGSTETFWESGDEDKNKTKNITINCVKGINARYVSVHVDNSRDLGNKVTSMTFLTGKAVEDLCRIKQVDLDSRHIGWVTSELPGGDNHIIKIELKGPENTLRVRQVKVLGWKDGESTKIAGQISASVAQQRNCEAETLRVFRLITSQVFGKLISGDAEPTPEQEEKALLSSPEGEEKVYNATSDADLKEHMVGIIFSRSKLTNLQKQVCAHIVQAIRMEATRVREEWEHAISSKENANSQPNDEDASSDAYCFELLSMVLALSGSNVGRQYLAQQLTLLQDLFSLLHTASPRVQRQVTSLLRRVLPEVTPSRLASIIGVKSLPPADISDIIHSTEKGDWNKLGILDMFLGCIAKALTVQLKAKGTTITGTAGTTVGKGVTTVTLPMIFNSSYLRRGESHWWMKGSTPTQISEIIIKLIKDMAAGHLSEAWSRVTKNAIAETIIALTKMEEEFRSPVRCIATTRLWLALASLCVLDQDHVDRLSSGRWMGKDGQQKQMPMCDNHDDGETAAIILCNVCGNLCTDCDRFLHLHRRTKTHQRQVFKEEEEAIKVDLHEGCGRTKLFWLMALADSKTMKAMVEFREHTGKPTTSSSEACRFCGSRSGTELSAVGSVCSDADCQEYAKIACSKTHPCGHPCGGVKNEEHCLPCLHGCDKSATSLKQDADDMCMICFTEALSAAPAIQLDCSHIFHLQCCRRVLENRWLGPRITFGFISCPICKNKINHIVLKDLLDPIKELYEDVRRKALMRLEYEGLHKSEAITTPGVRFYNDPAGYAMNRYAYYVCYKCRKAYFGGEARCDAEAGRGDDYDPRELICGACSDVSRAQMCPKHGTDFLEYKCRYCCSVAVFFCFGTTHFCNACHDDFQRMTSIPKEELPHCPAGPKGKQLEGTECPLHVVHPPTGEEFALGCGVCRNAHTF
# These are yes or no findings as the source states them, for the method shown. In cells and extracts the contact can be indirect. A yes stands for co-enrichment or nearness to the bait. Other partners may have been found. No binding means not detected with the bait.
# Biological target: PhastID-tagged Rheb (UniProt Q15382)
# Assay: proximity labelling; PhastID-Rheb stably expressed in HeLa 229 cells; serum starved 16 h, then 0.9 uM insulin plus 50 uM biotin for 15 min or 1 h; RIPA whole cell lysate, streptavidin magnetic bead pull-down, LC-MS/MS, triplicates; PhastID alone and biotin alone as controls
row,binding,Substance
1,binds,"ATP6AP1 (endogenous, HeLa 229) (from UniProt Q15904 42-470)"
2,no binding,PAM (from UniProt O75592 1-4678)
3,binds,RAB7A (from UniProt P51149 1-207)
